Reference: patent US20230287081A1
These are yes or no findings as the source states them, for the method shown. Some binding calls cover weakened binding; strength is not graded here.

Protein sequences, listed by entry. Tags and fused reporters are not part of them. Residues count along the entry.
UniProt P51654, residues 25-559: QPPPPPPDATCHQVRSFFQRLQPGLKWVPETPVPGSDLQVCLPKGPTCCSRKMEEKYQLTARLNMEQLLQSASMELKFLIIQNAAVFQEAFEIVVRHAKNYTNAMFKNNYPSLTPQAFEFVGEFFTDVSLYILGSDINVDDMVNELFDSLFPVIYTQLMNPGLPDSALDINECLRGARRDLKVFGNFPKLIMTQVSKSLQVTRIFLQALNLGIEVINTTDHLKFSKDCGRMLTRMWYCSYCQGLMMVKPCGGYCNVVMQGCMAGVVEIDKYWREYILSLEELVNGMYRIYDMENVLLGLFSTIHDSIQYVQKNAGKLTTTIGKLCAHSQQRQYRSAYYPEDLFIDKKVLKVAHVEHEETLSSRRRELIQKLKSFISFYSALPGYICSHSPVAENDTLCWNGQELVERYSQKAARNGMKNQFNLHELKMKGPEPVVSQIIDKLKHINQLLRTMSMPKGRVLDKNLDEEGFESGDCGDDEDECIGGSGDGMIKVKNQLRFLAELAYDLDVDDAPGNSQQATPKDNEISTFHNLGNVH

Molecular target: hGPC-3 (BioLegend) (human) (UniProt P51654)
Assay: ELISA, hGPC-3 coated

- binding: binds
B1: aGPC-3 (antibody, human IgG1, kappa, V domains shown)
VH: QVQLVQSGAEVKKPGASVKVSCKASGYTFTDYEMHWVRQAPGQGLEWMGALDPKTGDTAYSQKFKGRVTLTADKSTSTAYMELSSLTSEDTAVYYCTRFYSYTYWGQGTLVTVSS
VL: DVVMTQSPLSLPVTPGEPASISCRSSQSLVHSNRNTYLHWYLQKPGQSPQLLIYKVSNRFSGVPDRFSGSGSGTDFTLKISRVEAEDVGVYYCSQNTHVPPTFGQGTKLEIKR
